This assay addresses T1, SETD3 fused to the TurboID biotin ligase at either the N- or the C-terminus (human) (UniProt Q86TU7).
T1 sequence: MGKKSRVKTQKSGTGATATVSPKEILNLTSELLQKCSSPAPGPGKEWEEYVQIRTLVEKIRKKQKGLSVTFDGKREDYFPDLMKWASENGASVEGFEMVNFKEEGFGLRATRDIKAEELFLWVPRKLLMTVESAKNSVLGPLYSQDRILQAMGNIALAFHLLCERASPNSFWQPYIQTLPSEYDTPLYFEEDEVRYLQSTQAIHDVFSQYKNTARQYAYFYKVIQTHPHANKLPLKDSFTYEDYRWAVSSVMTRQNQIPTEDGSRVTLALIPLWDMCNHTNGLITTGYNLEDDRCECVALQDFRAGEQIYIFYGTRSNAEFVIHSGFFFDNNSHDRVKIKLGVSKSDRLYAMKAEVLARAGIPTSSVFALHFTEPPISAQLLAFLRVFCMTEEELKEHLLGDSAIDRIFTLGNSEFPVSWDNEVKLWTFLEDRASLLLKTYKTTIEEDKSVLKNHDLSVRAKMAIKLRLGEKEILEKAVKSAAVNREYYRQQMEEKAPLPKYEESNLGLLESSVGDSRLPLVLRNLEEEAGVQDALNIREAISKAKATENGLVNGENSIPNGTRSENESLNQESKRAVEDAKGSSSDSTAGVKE
Kind of assay: proximity labelling; SETD3 fused to TurboID at the N- or C-terminus, both constructs co-transfected in HEK293T SETD3 KO cells for 48 h; 30 min with 50 µM biotin or PBS; biotinylated proteins enriched on streptavidin magnetic beads, on-bead trypsin digestion, nano-UPLC Q-TOF MS/MS.

Protein sequences, listed by entry. Tags and fused reporters are not part of them. Lines headed by an entry give the natural chain unless they say otherwise; changes in a name come on top. Chains listed by the source or under a name are the forms on record and can include a tag or linker. Residues count along the entry.
UniProt P25705, residues 44-553: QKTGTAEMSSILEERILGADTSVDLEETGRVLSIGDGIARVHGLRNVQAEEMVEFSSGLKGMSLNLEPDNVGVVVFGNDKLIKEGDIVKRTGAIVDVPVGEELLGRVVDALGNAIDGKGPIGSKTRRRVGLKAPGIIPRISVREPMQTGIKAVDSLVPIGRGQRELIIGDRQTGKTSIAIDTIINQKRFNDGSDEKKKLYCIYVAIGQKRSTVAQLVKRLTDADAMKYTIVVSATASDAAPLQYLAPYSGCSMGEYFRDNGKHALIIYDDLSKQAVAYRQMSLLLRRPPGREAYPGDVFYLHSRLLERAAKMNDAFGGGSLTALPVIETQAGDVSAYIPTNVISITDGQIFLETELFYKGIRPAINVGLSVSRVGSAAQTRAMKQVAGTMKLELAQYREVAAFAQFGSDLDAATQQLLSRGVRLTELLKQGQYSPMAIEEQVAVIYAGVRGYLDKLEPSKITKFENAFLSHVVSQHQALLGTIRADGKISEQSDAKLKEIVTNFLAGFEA
UniProt P61163: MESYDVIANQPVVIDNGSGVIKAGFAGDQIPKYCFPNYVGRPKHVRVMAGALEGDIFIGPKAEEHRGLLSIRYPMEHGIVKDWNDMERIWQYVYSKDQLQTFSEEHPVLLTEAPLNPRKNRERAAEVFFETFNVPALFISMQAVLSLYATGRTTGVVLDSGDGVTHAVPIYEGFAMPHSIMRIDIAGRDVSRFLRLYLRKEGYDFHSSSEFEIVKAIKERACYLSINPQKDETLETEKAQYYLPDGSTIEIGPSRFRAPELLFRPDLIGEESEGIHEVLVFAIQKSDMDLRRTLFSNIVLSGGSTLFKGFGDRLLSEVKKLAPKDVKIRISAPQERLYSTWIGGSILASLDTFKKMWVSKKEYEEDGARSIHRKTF
exportin 2 isoform 2 (P55060-4, form named): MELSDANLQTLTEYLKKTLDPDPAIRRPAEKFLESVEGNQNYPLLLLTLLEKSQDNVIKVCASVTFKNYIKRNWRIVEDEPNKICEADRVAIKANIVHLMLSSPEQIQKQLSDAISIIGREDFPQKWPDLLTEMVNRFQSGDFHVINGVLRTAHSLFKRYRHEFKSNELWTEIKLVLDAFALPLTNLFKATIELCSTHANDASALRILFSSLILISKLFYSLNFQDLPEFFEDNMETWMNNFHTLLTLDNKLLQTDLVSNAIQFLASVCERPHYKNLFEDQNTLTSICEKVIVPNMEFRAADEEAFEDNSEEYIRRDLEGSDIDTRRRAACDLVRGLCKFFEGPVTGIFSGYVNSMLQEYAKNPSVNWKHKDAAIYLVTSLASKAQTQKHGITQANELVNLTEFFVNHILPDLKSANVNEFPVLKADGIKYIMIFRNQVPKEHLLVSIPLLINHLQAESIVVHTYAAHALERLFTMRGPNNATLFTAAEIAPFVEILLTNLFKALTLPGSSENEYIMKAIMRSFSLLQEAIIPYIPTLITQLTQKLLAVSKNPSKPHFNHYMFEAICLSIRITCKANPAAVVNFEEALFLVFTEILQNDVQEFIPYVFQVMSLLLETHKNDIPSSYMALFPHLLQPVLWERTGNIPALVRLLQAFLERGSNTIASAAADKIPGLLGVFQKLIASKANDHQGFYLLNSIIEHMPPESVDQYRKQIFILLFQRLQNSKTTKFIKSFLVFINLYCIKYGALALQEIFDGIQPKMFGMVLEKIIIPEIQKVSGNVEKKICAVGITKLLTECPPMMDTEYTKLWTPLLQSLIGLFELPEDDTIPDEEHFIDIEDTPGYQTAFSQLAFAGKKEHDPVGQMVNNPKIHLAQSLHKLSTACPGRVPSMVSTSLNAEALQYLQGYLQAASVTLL
UniProt P08238: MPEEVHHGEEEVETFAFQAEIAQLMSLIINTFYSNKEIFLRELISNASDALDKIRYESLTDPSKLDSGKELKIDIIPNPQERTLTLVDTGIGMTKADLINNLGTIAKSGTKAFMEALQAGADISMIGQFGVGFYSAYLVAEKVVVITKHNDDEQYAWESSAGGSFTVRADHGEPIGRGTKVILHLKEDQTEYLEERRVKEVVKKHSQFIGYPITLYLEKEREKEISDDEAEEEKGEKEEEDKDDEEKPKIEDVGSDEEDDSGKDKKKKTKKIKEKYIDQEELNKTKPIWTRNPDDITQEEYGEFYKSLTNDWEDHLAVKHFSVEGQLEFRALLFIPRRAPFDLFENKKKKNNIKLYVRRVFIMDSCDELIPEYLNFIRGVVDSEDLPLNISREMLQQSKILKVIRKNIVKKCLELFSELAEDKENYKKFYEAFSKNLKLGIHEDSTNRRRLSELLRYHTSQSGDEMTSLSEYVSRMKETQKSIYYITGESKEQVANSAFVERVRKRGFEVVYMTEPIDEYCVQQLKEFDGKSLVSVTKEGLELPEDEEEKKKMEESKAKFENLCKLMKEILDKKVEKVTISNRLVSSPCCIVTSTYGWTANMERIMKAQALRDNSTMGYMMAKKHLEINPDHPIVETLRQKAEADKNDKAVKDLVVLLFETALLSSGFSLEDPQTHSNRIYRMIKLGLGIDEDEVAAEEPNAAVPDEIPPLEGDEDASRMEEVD
UniProt Q15365: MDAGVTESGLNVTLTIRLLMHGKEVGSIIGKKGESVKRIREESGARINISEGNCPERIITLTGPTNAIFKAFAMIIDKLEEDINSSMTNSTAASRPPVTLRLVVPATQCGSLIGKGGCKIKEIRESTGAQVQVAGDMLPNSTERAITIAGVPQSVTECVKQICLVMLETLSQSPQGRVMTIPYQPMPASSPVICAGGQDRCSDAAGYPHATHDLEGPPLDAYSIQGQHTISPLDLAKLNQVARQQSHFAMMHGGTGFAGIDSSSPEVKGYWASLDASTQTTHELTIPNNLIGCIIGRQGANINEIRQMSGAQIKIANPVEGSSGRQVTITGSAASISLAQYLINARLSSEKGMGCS
poly rC binding protein 2 isoform c (Q15366-4, form named): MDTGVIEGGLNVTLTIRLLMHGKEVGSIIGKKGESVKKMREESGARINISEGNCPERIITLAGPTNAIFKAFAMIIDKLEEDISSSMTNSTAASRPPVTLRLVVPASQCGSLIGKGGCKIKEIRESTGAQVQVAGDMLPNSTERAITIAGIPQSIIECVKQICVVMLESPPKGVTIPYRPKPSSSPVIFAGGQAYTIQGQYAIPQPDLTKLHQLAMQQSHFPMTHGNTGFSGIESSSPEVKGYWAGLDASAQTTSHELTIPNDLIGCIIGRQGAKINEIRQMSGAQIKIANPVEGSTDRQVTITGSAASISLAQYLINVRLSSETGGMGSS
ras responsive element binding protein 1 isoform 1 (Q92766-2, form named): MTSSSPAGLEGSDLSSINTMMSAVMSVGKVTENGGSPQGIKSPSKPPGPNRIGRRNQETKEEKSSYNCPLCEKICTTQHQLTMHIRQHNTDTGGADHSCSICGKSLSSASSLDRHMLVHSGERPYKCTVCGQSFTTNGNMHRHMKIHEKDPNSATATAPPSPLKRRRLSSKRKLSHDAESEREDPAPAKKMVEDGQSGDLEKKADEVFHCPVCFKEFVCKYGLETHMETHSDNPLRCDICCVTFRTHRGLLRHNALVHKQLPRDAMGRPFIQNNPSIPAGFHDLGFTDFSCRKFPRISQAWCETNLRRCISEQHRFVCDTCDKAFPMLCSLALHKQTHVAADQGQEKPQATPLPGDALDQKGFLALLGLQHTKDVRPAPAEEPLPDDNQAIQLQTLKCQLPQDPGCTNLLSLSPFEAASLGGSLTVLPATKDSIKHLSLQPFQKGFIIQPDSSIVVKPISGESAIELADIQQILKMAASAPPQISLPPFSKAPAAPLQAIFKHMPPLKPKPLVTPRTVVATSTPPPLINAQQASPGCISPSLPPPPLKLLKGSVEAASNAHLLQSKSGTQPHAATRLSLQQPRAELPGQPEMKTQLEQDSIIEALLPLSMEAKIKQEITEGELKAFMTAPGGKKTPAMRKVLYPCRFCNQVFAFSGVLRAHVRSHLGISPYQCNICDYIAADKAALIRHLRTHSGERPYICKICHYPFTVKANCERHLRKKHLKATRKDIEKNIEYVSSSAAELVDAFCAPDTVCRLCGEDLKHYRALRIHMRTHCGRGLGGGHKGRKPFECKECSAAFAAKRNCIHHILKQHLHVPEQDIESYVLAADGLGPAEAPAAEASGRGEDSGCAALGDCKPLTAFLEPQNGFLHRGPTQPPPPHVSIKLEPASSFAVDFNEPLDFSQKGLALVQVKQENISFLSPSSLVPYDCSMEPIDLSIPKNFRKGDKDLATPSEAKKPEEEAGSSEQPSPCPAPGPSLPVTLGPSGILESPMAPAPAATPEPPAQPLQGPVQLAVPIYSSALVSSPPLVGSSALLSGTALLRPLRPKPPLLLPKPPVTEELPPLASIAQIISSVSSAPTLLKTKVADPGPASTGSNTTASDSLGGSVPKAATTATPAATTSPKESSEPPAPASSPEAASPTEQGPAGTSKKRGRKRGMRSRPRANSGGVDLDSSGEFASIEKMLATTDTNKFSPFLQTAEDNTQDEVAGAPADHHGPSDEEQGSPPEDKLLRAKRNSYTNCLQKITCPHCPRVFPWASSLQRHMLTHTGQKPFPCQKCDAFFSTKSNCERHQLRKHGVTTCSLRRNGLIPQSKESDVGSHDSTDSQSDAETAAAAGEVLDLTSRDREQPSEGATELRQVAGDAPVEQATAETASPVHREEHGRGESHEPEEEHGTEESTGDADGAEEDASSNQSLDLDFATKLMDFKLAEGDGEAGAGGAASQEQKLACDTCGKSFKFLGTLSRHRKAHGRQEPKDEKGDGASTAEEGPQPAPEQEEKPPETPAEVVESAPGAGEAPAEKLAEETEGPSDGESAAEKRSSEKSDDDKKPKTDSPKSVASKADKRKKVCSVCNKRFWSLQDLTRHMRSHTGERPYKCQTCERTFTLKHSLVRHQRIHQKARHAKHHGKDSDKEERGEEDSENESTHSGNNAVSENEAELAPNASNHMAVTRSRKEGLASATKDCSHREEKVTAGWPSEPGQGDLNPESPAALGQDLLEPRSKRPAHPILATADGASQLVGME

No constants are given. Whether binding was seen depends on the method and setting. Binding seen in cells or lysates may run through a third protein. Here binding means that the protein was enriched with, or labelled near, the bait; the list need not be complete. Sequences can lack the tags named with a protein.

Among the data in paper PMC12548662 are binding values, retold here.

“ATP synthase subunit alpha mitochondrial (from UniProt P25705-1 44-553)”: the binding result is on record as “binds”.
For the substance “alpha centractin (endogenous) (from UniProt P61163 1-376)”, the binding result was “binds”.
With “eukaryotic initiation factor 4A I isoform 1 (from UniProt P60842-1 1-406)” the entry was “binds”.
Consider “exportin 2 isoform 2 (from UniProt P55060-4 1-915)”, for which the binding entry is “binds”.
In the case of “heat shock protein HSP 90 beta isoform a (from UniProt P08238 1-724)”, the binding result is recorded as “binds”.
Under “poly rC binding protein 1 (from UniProt Q15365 1-356)” stands “binds”.
With “poly rC binding protein 2 isoform c (from UniProt Q15366-4 1-331)” the entry was “binds”.
In the case of “ras responsive element binding protein 1 isoform 1 (from UniProt Q92766-2 1-1742)”, the binding result is reported as “binds”.
With “spliceosome RNA helicase DDX39B (from UniProt Q13838-1 1-428)” the entry was “binds”.
